Laboratory results: PubChem BioAssay AID1794845 (National Center for Advancing Translational Sciences (NCATS), 2023)
Among all 6,900 compounds or so, fewer than 10 were called active. Calls follow the shape of the dose curve; as a rule, active = well fitted curve in the direction sought with a large enough effect; inconclusive = small, poorly fitted or top-dose-only effect, or another doubt; inactive = no such curve, though single readings can be large or run the other way. The list shows a part of the results.

Amino acid sequences for entries named in this document (tags omitted). A change or cut given only in a name is not applied to a line headed by its entry.
UniProt C7C422: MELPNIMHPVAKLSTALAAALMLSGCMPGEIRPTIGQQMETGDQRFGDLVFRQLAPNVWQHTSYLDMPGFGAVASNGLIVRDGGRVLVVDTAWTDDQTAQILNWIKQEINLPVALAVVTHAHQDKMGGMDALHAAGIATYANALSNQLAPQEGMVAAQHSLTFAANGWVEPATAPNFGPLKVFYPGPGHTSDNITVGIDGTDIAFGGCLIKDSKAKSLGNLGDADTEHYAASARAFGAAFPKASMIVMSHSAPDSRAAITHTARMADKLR

These compounds were tested against Metallo-beta-lactamase type 2 (Klebsiella pneumoniae) (UniProt C7C422) (assay: qHTS to identify inhibitors of the New Delhi Metallo-beta-lactamase (NDM): primary screen against the NCATS Gemini Collection). Settings: NDM-1 enzyme, meropenem hydrolysis, absorbance 300 nm; at 38.4 µM (top of the series) unless noted.
Outline: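 Meropenem hydrolysis (50 uM final) by 2 nM NDM-1 read as 300 nm absorbance after 30 min, following >30 min compound–enzyme preincubation in HEPES pH 7.0 with 1 uM ZnSO4 and 0.01% Tween20.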
Also: % of control where 0% means no effect.

Activity % (negative = inhibition), inactive:
CC(=O)N1CCC(Cc2ccc(CN(C(=O)CCc3ccccc3)C3CC3)cc2)CC1 6.05%
O=C(c1ccc(Cn2ccn3nc4c(c3c2=O)CCCC4)cc1)N1CCN(c2ccccn2)CC1 8%
O=C(c1cn(CC2CCCO2)nn1)N1CCN(c2cccc(C(F)(F)F)c2)CC1 (stereo not drawn) 6.76%
CC(C)NC(=O)c1ccnc(-c2cc(NC3CCCC3)nc3[nH]ccc23)c1 4.62%
CC(C)(C)c1cc(C(=O)NCc2cccnc2)nn2cccc12 1.11%
Cc1ccc(N2CCN(C(=O)c3cc(C(F)(F)F)nn3C)CC2=O)cc1 -0.0539%
COc1cccc(Nc2nccc3c(=O)cc(-c4ccccn4)oc23)c1 24.4% [at 57.5 µM]
O=C(CCC[C@@H]1[C@H]2CCCN3CCC[C@@H](CN1Cc1ccccc1)[C@@H]23)Nc1cccnc1 -4.45%
Cc1cnc(C(=O)NC2C[C@H]3CC[C@@H](C2)N3C(=O)c2ccccc2C)cn1 (stereo partly drawn) 11.4%
Cc1nnc([C@H]2CCN(C(=O)c3ccccc3)C2)o1 -0.916% [at 77.1 µM]
Cc1cc(F)ccc1-c1[nH]nc2ncc(-c3ccnn3C)nc12 16.3% [at 57.5 µM]
Cc1cnc2c(C(=O)N3CCCn4nc(C(C)O)cc4C3)cnn2c1 (stereo not drawn) 8.4%
CN(c1ccccc1)c1ccc2ncn(C3CC3)c(=O)c2n1 44.6% [at 77.1 µM]
C[C@]1(O)CCN(C(=O)CCS(=O)(=O)c2ccccc2)C[C@@H]1O 0.636%
COCCOc1ccnc(-c2noc([C@@H]3CCCN3Cc3ccncc3)n2)c1 4.43% [at 57.5 µM]
O=C1NCCCCCCN(C(=O)c2ccco2)[C@H]2C[C@H](c3nc(-c4cnccn4)no3)C[C@@H]12 -8.38%
CC(C)CCNC(=O)C1CCCN(C2CCN(CCc3ccccc3)CC2)C1 (stereo not drawn) -1.79%
O=C(c1ccccc1OC(F)(F)F)N1CCC(c2n[nH]c(=O)n2-c2ccccc2)CC1 0.752%
CCCS(=O)(=O)N1C[C@@H]2C(=O)N(CCC3CCN(C(C)C)CC3)C(=O)[C@@H]2C1 -0.489%
O=C(Cc1ccccn1)NCCNC(=O)c1cccc(-c2ccc(C(F)(F)F)cc2)c1 28.6%
O=C1N(C2CCN(S(=O)(=O)c3cnc[nH]3)CC2)C(c2ccccc2)C12CCCC2 (stereo not drawn) -3.13%
COc1cccc(NC(=O)C2(C)CCc3cnc(NCc4ccccc4)nc32)c1 (stereo not drawn) 63.2% [at 57.5 µM]
O=C(N[C@H](c1ccccn1)C1CC(O)C1)c1cc(=O)n(-c2ccccc2)[nH]1 (stereo partly drawn) 5.44%
Cn1nnnc1C1CCCN(C(=O)c2ccc(F)cc2)C1 (stereo not drawn) 15.3%
CC1CCCN1C(=O)c1cc(-c2cnn(C(C)C)c2)nc2cc(F)ccc12 (stereo not drawn) 8.18%
CN(C)C(=O)CN1CCCC(N2CCN(c3cccc(C(F)(F)F)c3)CC2)C1 (stereo not drawn) 6.25%
CN(Cc1ccc(F)cc1)C(=O)c1cn(Cc2ccccc2C(F)(F)F)nn1 9.34%
CC(C)Oc1cccc(-c2nnc(CCC(=O)NCCc3cccs3)c(=O)[nH]2)c1 23.7%
Cc1ccc(C)c(OCC(=O)N[C@H]2CCOC[C@H]2C2CCOCC2)c1C -0.0546%
Cc1cccc(CN2CC(Oc3cccc(C(=O)NCC4CC4)c3)C2)c1 2.87%
CN1C(=O)C2(CCN(Cc3cccn3C)C2)c2ccccc21 (stereo not drawn) 27.3% [at 57.5 µM]
Cn1ccnc1CN1CCOC[C@H](Oc2ccc(C(F)(F)F)cc2)C1 20.7% [at 57.5 µM]
O=C([C@@H]1C[C@H](Oc2cccnc2)CN1S(=O)(=O)c1cccs1)N1CCCC1 4.57%
CS(=O)(=O)c1ccc(N2CCN(CC3(O)CNCCOC3)CC2)c(F)c1 (stereo not drawn) 12.2%
O=C(c1nnc(COc2ccc3c(c2)OCO3)n1Cc1ccccc1)N1CCC[C@@H]1c1ccc(Br)cc1 -0.303%
CN1C[C@@H](NC(=O)NC2CCCCC2)C[C@H]1c1nc(-c2cccnc2)no1 8.16% [at 57.5 µM]
O=C(C1CCCC1)N1CCC(C(=O)N2CCC(c3nc4ccncc4[nH]3)C2)CC1 (stereo not drawn) 1.95%
CN(C)S(=O)(=O)N1CCc2c(nc3cc(-c4ccccc4)[nH]n3c2=O)C1 14.3%
CN1CCN(c2ccc(-c3nccc4c(=O)cc(N(C)C5CCOCC5)oc34)cn2)CC1 11.5% [at 57.5 µM]
CCN(CC)C(=O)[C@@H]1CCCN1C1(C(=O)NC)COC1 2.09% [at 77.1 µM]
CCc1nc2c(=O)n(CC(=O)NCCC3=CCCCC3)nc(C)c2s1 11.1%
CN(C)[C@@H]1[C@@H](NS(=O)(=O)c2cccc3c2OCCO3)[C@H]2CCO[C@H]21 18.7%
COc1cc(F)ccc1-c1nc(-c2c(C)noc2C)cc2[nH]c(C)cc12 4.34% [at 57.5 µM]
CN1CCN(C(=O)c2nn(C)c3c2CCCC3)CC12CCNC(=O)CC2 (stereo not drawn) 10.2%
Cc1ccc(-c2nc(CN3CCCC3=O)no2)cc1 6.38%
Cc1nc2c(c(NC3CC3)n1)CCN(C(=O)CCc1cccnc1)CC2 4.41%
CCCn1cc(S(=O)(=O)N2C[C@H](C3CC3)[C@@H](N)C2)cn1 -2.68%
O=C(C1CC1)N(C1CCOCC1)C1CCN(S(=O)(=O)C2CC2)CC1 11.3%
CCc1noc(-c2cn(C3CCN(C(=O)c4cc(Cl)ccc4F)CC3)nn2)n1 6.36%
Cn1cc(C(=O)NC2CC(c3cc(N4CCOCC4)ncn3)C2)cn1 (stereo not drawn) 0.983%
Cc1ncc(C(=O)N[C@H]2CC[C@H]2NC2CCCC2)c(-c2ccccc2)n1 -0.554%
CC(C)c1ccccc1NC(=O)N1CCOC(C(F)(F)F)C1 (stereo not drawn) -1.86%
CCCN1CC2(CCN(C)CC2)CC1C(=O)N(C)Cc1nnc(C)o1 (stereo not drawn) 11.7%

A stretch from the list above, as a working copy:
Activity % (negative = inhibition), inactive:
O=C(C1CCCC1)N1CCC(C(=O)N2CCC(c3nc4ccncc4[nH]3)C2)CC1 (stereo not drawn) 1.95%
CN(C)S(=O)(=O)N1CCc2c(nc3cc(-c4ccccc4)[nH]n3c2=O)C1 14.3%
CN1CCN(c2ccc(-c3nccc4c(=O)cc(N(C)C5CCOCC5)oc34)cn2)CC1 11.5% [at 57.5 µM]
